Measured values taken from publication PMC7819943, “Rice protein-binding microarrays: a tool to detect cis-acting elements near promoter regions in rice”.
Some of the results follow.

Protein sequences, listed by entry. Tags and fused reporters are not part of them.
UniProt Q0JBA9, entry or part of it: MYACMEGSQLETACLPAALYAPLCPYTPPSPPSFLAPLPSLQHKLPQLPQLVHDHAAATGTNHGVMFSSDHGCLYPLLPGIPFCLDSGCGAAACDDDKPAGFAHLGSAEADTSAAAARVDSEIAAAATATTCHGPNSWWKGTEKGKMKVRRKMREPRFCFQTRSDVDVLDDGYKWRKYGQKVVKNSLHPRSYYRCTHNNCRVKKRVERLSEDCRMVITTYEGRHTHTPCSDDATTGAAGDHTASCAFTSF

What follows are sequences tested against OsWRKY34 (Oryza sativa, UniProt Q0JBA9 1-250) (assay: protein-binding microarray (RPBM); PBS, 2% BSA, 51.3 ng/ul salmon testes DNA, 50 uM zinc acetate, 200 nM TF, 25 C, 1 h; high values mean tight binding). Settings: protein: recombinant; tags: N-terminal polyhistidine and DsRed monomer fusion (pET32a); label: CyDye5-dUTP incorporated in the synthesized complementary strand; 3' TTTTT single-stranded linker to array surface; dsDNA, one strand shown.
Summary of the method: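 For the binding signal, per-feature fluorescence intensity was read in arbitrary units on an Axon 4000B scanner. Before scanning, a 2% BSA-blocked custom Agilent array made double-stranded with Cy5-dUTP was washed after 1 h at 25 °C with 200 nM protein and 50 µM zinc acetate. The proteins were Ni–NTA-purified transcription factors with N-terminal polyhistidine and DsRed fusions, expressed in E. coli BL21-CodonPlus.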
For “TTCTTCTCTGATGCATCCTGTTCTCCACCATTCCATCTCTCGGAGTCACCTAGTGCAG”, the binding signal was 8690 fluorescence intensity (a.u.).
In the case of “CTAGTCCATCGATCGAGGTTACACGCATGACGTACATAATCGGAGTCACCTAGTGCAG”, the binding signal is reported as 8440 fluorescence intensity (a.u.).
For “TTCTTCTCTACCTGCATTAATTTGGTTTTGTTTTAAGTGACGGAGTCACCTAGTGCAG”, the binding signal was 9770 fluorescence intensity (a.u.).
In the case of “GATCTCTGCCTATTCTTCTCTTCCACCGGCGACAAGATCGCGGAGTCACCTAGTGCAG”, the binding signal is reported as 9710 fluorescence intensity (a.u.).
In the case of “TAGACAGTCCCATTCCACCACCTCAGCTGCCGTGAAAGAACGGAGTCACCTAGTGCAG”, the binding signal is reported as 9010 fluorescence intensity (a.u.).
For “CGTCTCTTCTCTCCCGCTCCTTGCGCCATCTCGCGGCTGACGGAGTCACCTAGTGCAG”, the binding signal was 9810 fluorescence intensity (a.u.).
For “CTGCTTCCGTGTTGATACTTTCTTGGTACTGAACTACTTACGGAGTCACCTAGTGCAG”, the binding signal was 8890 fluorescence intensity (a.u.).
For “TTTTTGGTTTTTTGTCGAGGATAAATCCTCGCGTTTTTCTCGGAGTCACCTAGTGCAG”, the binding signal was 9260 fluorescence intensity (a.u.).
For “GCATACGCAACCTCACTGATCTCTCCCTGCGCCATAACAACGGAGTCACCTAGTGCAG”, the binding signal was 9800 fluorescence intensity (a.u.).
In the case of “GAAATTTTGTGTGTTTTCAGGCTATACTCAGAACTGACCTCGGAGTCACCTAGTGCAG”, the binding signal is reported as 8920 fluorescence intensity (a.u.).
For “GAGGTTTTGGTTGACGTGGCGCCTATATGACGGTGTTGACCGGAGTCACCTAGTGCAG”, the binding signal was 11300 fluorescence intensity (a.u.).
With “CGGGACACACGTCTTACACATCAGCATTTGCTAAGCATACCGGAGTCACCTAGTGCAG” the binding signal was 9460 fluorescence intensity (a.u.).
“ATTGAATCAGGATATTTTACTTTCGCCTTTGCTCTGAAAACGGAGTCACCTAGTGCAG” was tested, and the binding signal was 8880 fluorescence intensity (a.u.).
In the case of “TGTTTGCTTCATACTAAGATTTCGGTTGTTCAAGCTTTCGCGGAGTCACCTAGTGCAG”, the binding signal is reported as 8290 fluorescence intensity (a.u.).
“CAGTGGTCCTGATTATACTATGGAATATATTCCATTATTACGGAGTCACCTAGTGCAG” was tested, and the binding signal was 8090 fluorescence intensity (a.u.).
In the case of “TGGAACCGGATTTTTTTAGTTGTTTTTCGCTATTTTTTCCCGGAGTCACCTAGTGCAG”, the binding signal is reported as 9760 fluorescence intensity (a.u.).
For “CTCCTCATCCATCCACCACACCACTTGCCTCCAAACAAAACGGAGTCACCTAGTGCAG”, the binding signal was 9340 fluorescence intensity (a.u.).
In the case of “TGTGACAGTTTTTATTTATCTTAATTACTATCTTTTTTTTCGGAGTCACCTAGTGCAG”, the binding signal is reported as 9900 fluorescence intensity (a.u.).
With “CTCTCTCCTCGCGTCTGCGTGTCAACGCCTACACAAACAGCGGAGTCACCTAGTGCAG” the binding signal was 8530 fluorescence intensity (a.u.).
“GAATTGCAAGTTTTCTGTTTACCCTGCTTCTTATTATTTTCGGAGTCACCTAGTGCAG” was tested, and the binding signal was 13800 fluorescence intensity (a.u.).
With “CCACTGCAGCCGTCTTTACTCTTTCTTTTGCAAAAAAAAACGGAGTCACCTAGTGCAG” the binding signal was 9160 fluorescence intensity (a.u.).
In the case of “ACTGACGATCAATGCTGCGCTGGATGATTTTGCTTTCAAACGGAGTCACCTAGTGCAG”, the binding signal is reported as 8420 fluorescence intensity (a.u.).
For “TTTGGTTACCGCATTTTTGTGTTCTTCTGTGCAGTTTAGCCGGAGTCACCTAGTGCAG”, the binding signal was 8150 fluorescence intensity (a.u.).
“ACGGCACCTCATAGATTATTCCGTCCGTTCCAACAACCTCCGGAGTCACCTAGTGCAG” was tested, and the binding signal was 8320 fluorescence intensity (a.u.).
For “ATATCATGCAATCAACAGAGAGTACAACTTGTTCCTACCACGGAGTCACCTAGTGCAG”, the binding signal was 8030 fluorescence intensity (a.u.).
“GACAAGGTTTGACTAAAAGATGGGTGTATCACATGTGGGCCGGAGTCACCTAGTGCAG” was tested, and the binding signal was 9140 fluorescence intensity (a.u.).
With “ACTTCCAAGTCTTCGACCGCGACACTCCTTACCCGCACGCCGGAGTCACCTAGTGCAG” the binding signal was 8570 fluorescence intensity (a.u.).
With “ATATCCAACTTTAATCGTCCATTTTATTTGTTTTTTTTAACGGAGTCACCTAGTGCAG” the binding signal was 9110 fluorescence intensity (a.u.).
In the case of “TCATGGCTTGTAGGTTTTCAGCTGCTTTCTGCTAAGTACACGGAGTCACCTAGTGCAG”, the binding signal is reported as 9310 fluorescence intensity (a.u.).
With “TATTAGTGTTTTATTTTCACCGGTTAATATTTTTGTTCTTCGGAGTCACCTAGTGCAG” the binding signal was 8880 fluorescence intensity (a.u.).
In the case of “CCCTCCATTTTTTTTTTCTTATTTCGCGCTCTCTCTCCAACGGAGTCACCTAGTGCAG”, the binding signal is reported as 8690 fluorescence intensity (a.u.).
“ACTATACTTGGTATACTTGGTCCGGGGTTTGTTCATCTTGCGGAGTCACCTAGTGCAG” was tested, and the binding signal was 8640 fluorescence intensity (a.u.).
In the case of “TGACGATGACTGGAACTCCAAGCCTCCAACTAGTTATTTTCGGAGTCACCTAGTGCAG”, the binding signal is reported as 8370 fluorescence intensity (a.u.).
With “GTTTGCATGTTAAGCTTTAGGATTTGGTGGGTTATAATTTCGGAGTCACCTAGTGCAG” the binding signal was 10800 fluorescence intensity (a.u.).
With “CTCTCCACCGCCATTAACGGTTACTTATCTCTCTAGTACTCGGAGTCACCTAGTGCAG” the binding signal was 8060 fluorescence intensity (a.u.).
For “ACGTACGCCTTCATCGACGCTTAATCGATCTGTTTCCATGCGGAGTCACCTAGTGCAG”, the binding signal was 8960 fluorescence intensity (a.u.).
In the case of “AGATACTCATTTCCACCTCTTCCTCTCAAGTTATTACACTCGGAGTCACCTAGTGCAG”, the binding signal is reported as 10000 fluorescence intensity (a.u.).
For “TTTTCAGGTGGAATTTGTAATTTGTTTTGTTATTAGGCTACGGAGTCACCTAGTGCAG”, the binding signal was 8130 fluorescence intensity (a.u.).
For “ATATTTTGTTGCACCCTTTTGGTTATGCAATTGCTACACTCGGAGTCACCTAGTGCAG”, the binding signal was 11600 fluorescence intensity (a.u.).
With “ATTCGGACGGTGTTTGATCTTTCTGTCGTGATTGCTTTGCCGGAGTCACCTAGTGCAG” the binding signal was 9040 fluorescence intensity (a.u.).
For “ATATGTACCGTCATATCCCATCCAGTTTTGACGGTAAATCCGGAGTCACCTAGTGCAG”, the binding signal was 8550 fluorescence intensity (a.u.).
With “AACCTCTGCACCTCCTCCAACCAAACTAGCAGCTCCTGATCGGAGTCACCTAGTGCAG” the binding signal was 8590 fluorescence intensity (a.u.).
